Results deposited as PubChem BioAssay AID1508588 (Peter MacCallum Cancer Centre, 2020).
The deposit covers about 18,000 reagents; below is an unselected part. 790 of all reagents (4.4%) count as active. 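Calls rest on a combination of fold-change classes in drug and vehicle arms, not all shown here.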 Unmarked entries are inactive. Reagent sequences are not shown.

Assay: 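Which gene losses make BRAF-mutant melanoma cells more responsive to vemurafenib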 (primary screen)
Cell system: human WM266.4 melanoma cells (BRAF V600 mutant)
Reagent: siRNA pool against human genes, 40 nM
Time to read-out: 96 h from transfection to read-out
Challenge: vemurafenib 300 nM (about IC25), added 48 h after transfection, for 48 h; comparison arm got DMSO vehicle only
Measured: 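Ratios to non-targeting siRNA for cell gain, counted as DAPI nuclei after minus before drug and averaged over two replicates, and for absorbance-read medium lactate per cell; both binned into fold-change classes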
Direction: cell gain with vemurafenib: higher = more cell gain than with non-targeting siRNA; lactate per cell with vemurafenib: higher = more lactate made per cell
Rule for the call: 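a knock-down counts as enhancing when its fold-change classes with vehicle and with vemurafenib, taken together, show a stronger drug effect on cell gain or lactate per cell; exact class pairs not stated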
Meaning of the calls: active = enhances vemurafenib effect; inactive = no enhancement seen

Silencing of DEFB135 (GeneID 613209) came out at: cell gain with vemurafenib 0.64; lactate per cell with vemurafenib 0.96.
For MYOT (GeneID 9499), the values are cell gain with vemurafenib 1.12; lactate per cell with vemurafenib 0.92.
After knock-down of AGAP6 (GeneID 414189), the record shows cell gain with vemurafenib 0.77; lactate per cell with vemurafenib 0.96.
With knock-down of MRPL18 (GeneID 29074), the record shows cell gain with vemurafenib 0.94; lactate per cell with vemurafenib 1.64.
Silencing of U2AF1 (GeneID 7307) came out at: cell gain with vemurafenib 0.07; lactate per cell with vemurafenib 3.64.
Silencing of ITIH4 (GeneID 3700) came out at: cell gain with vemurafenib 0.78; lactate per cell with vemurafenib 0.52.
After knock-down of PLPPR4 (GeneID 9890), the record shows cell gain with vemurafenib 0.59 (active); lactate per cell with vemurafenib 0.48.
RND3 (GeneID 390) showed cell gain with vemurafenib 0.4; lactate per cell with vemurafenib 2.23.
NSUN5 (GeneID 55695) scored cell gain with vemurafenib 0.88; lactate per cell with vemurafenib 0.57.
TRAF5 (GeneID 7188) showed cell gain with vemurafenib 0.48; lactate per cell with vemurafenib 0.54.
EPHA2 (GeneID 1969) gave cell gain with vemurafenib 1.3; lactate per cell with vemurafenib 0.92.
Against DMP1 (GeneID 1758), the values are cell gain with vemurafenib 0.82; lactate per cell with vemurafenib 0.63.
GSDMA (GeneID 284110) scored cell gain with vemurafenib 0.7; lactate per cell with vemurafenib 0.54.
Depletion of FAM222A (GeneID 84915) resulted in: cell gain with vemurafenib 0.67; lactate per cell with vemurafenib 0.5.
TNFRSF10C (GeneID 8794) showed cell gain with vemurafenib 0.79; lactate per cell with vemurafenib 0.28.
Against YY1AP1 (GeneID 55249), the entry reads cell gain with vemurafenib 1; lactate per cell with vemurafenib 0.6.
GUCY2C (GeneID 2984) scored cell gain with vemurafenib 0.96; lactate per cell with vemurafenib 0.63.
Depletion of SUSD3 (GeneID 203328) came out at: cell gain with vemurafenib 0.44; lactate per cell with vemurafenib 0.92.
Knock-down of SLC35F3 (GeneID 148641) gave: cell gain with vemurafenib 0.75; lactate per cell with vemurafenib 0.46.
RNF170 (GeneID 81790) scored cell gain with vemurafenib 1.01; lactate per cell with vemurafenib 1.14.
Silencing of RIC8B (GeneID 55188) resulted in: cell gain with vemurafenib 0.45; lactate per cell with vemurafenib 1.16.
With knock-down of ZNF284 (GeneID 342909), the screen gave cell gain with vemurafenib 0.73; lactate per cell with vemurafenib 1.48.
After knock-down of SLF2 (GeneID 55719), the record shows cell gain with vemurafenib 1.03; lactate per cell with vemurafenib 0.91.

Sorted by “lactate per cell with vemurafenib” (lowest first): some entries from above.
TNFRSF10C (GeneID 8794): cell gain with vemurafenib = 0.79; lactate per cell with vemurafenib = 0.28
FAM222A (GeneID 84915): cell gain with vemurafenib = 0.67; lactate per cell with vemurafenib = 0.5
TRAF5 (GeneID 7188): cell gain with vemurafenib = 0.48; lactate per cell with vemurafenib = 0.54
GSDMA (GeneID 284110): cell gain with vemurafenib = 0.7; lactate per cell with vemurafenib = 0.54
DMP1 (GeneID 1758): cell gain with vemurafenib = 0.82; lactate per cell with vemurafenib = 0.63
EPHA2 (GeneID 1969): cell gain with vemurafenib = 1.3; lactate per cell with vemurafenib = 0.92

Next reagents follow.
For DDHD1 (GeneID 80821), the entry reads cell gain with vemurafenib 1.01; lactate per cell with vemurafenib 0.66.
OR4F16 (GeneID 81399) showed cell gain with vemurafenib 0.79; lactate per cell with vemurafenib 0.24.
E2F2 (GeneID 1870) gave cell gain with vemurafenib 0.83; lactate per cell with vemurafenib 0.88.
For MOB1B (GeneID 92597), the entry reads cell gain with vemurafenib 0.6; lactate per cell with vemurafenib 0.51.
Against GPR142 (GeneID 350383), the values are cell gain with vemurafenib 0.88; lactate per cell with vemurafenib 0.78.
Silencing of HYI (GeneID 81888) came out at: cell gain with vemurafenib 0.18; lactate per cell with vemurafenib 1.31.
After knock-down of MOCS1 (GeneID 4337), the record shows cell gain with vemurafenib 0.57; lactate per cell with vemurafenib 1.
SEC14L3 (GeneID 266629) gave cell gain with vemurafenib 0.79; lactate per cell with vemurafenib 1.34.
CDC42BPB (GeneID 9578) gave cell gain with vemurafenib 0.8; lactate per cell with vemurafenib 0.61.
Knock-down of GRWD1 (GeneID 83743) resulted in: cell gain with vemurafenib 0.4; lactate per cell with vemurafenib 0.88.
After knock-down of CHRNA5 (GeneID 1138), the record shows cell gain with vemurafenib 0.56; lactate per cell with vemurafenib 0.56.
After knock-down of BPIFB2 (GeneID 80341), the screen gave cell gain with vemurafenib 0.53; lactate per cell with vemurafenib 0.3.
ASTN2 (GeneID 23245) gave cell gain with vemurafenib 0.38; lactate per cell with vemurafenib 0.91.
After knock-down of LMTK1 (GeneID 9625) the results were cell gain with vemurafenib 0.31; lactate per cell with vemurafenib 0.88.
Silencing of ZNF416 (GeneID 55659) gave: cell gain with vemurafenib 0.73; lactate per cell with vemurafenib 1.34.
With knock-down of PAXIP1 (GeneID 22976), the record shows cell gain with vemurafenib 0.21; lactate per cell with vemurafenib 1.11.
CLEC5A (GeneID 23601) scored cell gain with vemurafenib 0.57; lactate per cell with vemurafenib 1.23.
